PubChem BioAssay AID743121 – NCATS | 2013

Aim: 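Genes whose silencing strengthens cell killing by camptothecin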 (primary screen)
Cell system: MDA-MB-231 cells, a human breast cancer line
Reagent: single siRNA against human genes, 20 nM siRNA (0.8 pmol per well)
Timing: 120 h (drug added 48 h after transfection, read 72 h later)
Conditions: camptothecin 20 nM (about EC30) for 72 h; vehicle 0.1% DMSO in parallel plates
Read-out: 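Cell viability by ATP luminescence (CellTiter-Glo) as % of non-targeting siRNA wells, and the log2 ratio of viability without drug over viability with camptothecin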
Direction: log2 vehicle/camptothecin viability: higher = stronger sensitisation to camptothecin
Rule for the call: 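Each gene scored by redundant siRNA activity (RSA) over its individual siRNA ratios; a gene is called active at p < 0.001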
This is one part, drawn at random, of about 26,000 deposited reagents. In the full data, 167 (0.63%) were called active. 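Calls are per gene from RSA p-values that are not deposited; an individual active-marked siRNA can sensitise only weakly.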 Entries without a mark were called inactive. Reagents against one gene are numbered here. Not all columns of the deposit are shown.

| gene knocked down | reagent no. | log2 vehicle/camptothecin viability |
| --- | --- | --- |
| POLA1 (DNA polymerase alpha 1, catalytic subunit) | 1 | -0.73 |
| POLA1 (DNA polymerase alpha 1, catalytic subunit) | 2 | -0.847 |
| POLA1 (DNA polymerase alpha 1, catalytic subunit) | 3 | 0.216 |
| POLA1 (DNA polymerase alpha 1, catalytic subunit) | 4 | -0.843 |
| GSTM1 (glutathione S-transferase mu 1) | 1 | -0.0178 |
| GSTM1 (glutathione S-transferase mu 1) | 2 | 0.764 |
| GSTM1 (glutathione S-transferase mu 1) | 3 | 0.0449 |
| GSTM1 (glutathione S-transferase mu 1) | 4 | 0.201 |
| RTN4RL2 (reticulon 4 receptor like 2) | 1 | 0.0582 |
| RTN4RL2 (reticulon 4 receptor like 2) | 2 | 0.11 |
| RTN4RL2 (reticulon 4 receptor like 2) | 3 | 0.086 |
| RTN4RL2 (reticulon 4 receptor like 2) | 4 | -0.16 |
| RFPL2 (ret finger protein like 2) | 1 | 0.11 |
| RFPL2 (ret finger protein like 2) | 2 | 0.0965 |
| RFPL2 (ret finger protein like 2) | 3 | 0.0522 |
| CIDEA (cell death inducing DFFA like effector a) | 1 | -0.234 |
| CIDEA (cell death inducing DFFA like effector a) | 2 | -0.00383 |
| CIDEA (cell death inducing DFFA like effector a) | 3 | -0.251 |
| CIDEA (cell death inducing DFFA like effector a) | 4 | -0.269 |
| HDAC10 (histone deacetylase 10) | 1 | -0.203 |
| HDAC10 (histone deacetylase 10) | 2 | -0.00348 |
| HDAC10 (histone deacetylase 10) | 3 | -0.03 |
| HDAC10 (histone deacetylase 10) | 4 | -0.206 |
| SLC6A18 | 1 | 0.0344 |
| SLC6A18 | 2 | -0.109 |
| SLC6A18 | 3 | -0.423 |
| CYP1B1 (cytochrome P450 family 1 subfamily B member 1) | 1 | -0.329 |
| CYP1B1 (cytochrome P450 family 1 subfamily B member 1) | 2 | 0.17 |
| CYP1B1 (cytochrome P450 family 1 subfamily B member 1) | 3 | -0.164 |
| ALDH1L1 (aldehyde dehydrogenase 1 family member L1) | 1 | -0.244 |
| ALDH1L1 (aldehyde dehydrogenase 1 family member L1) | 2 | 0.162 |
| ALDH1L1 (aldehyde dehydrogenase 1 family member L1) | 3 | -0.0303 |
| ALDH1L1 (aldehyde dehydrogenase 1 family member L1) | 4 | 0.0919 |
| PI4K2B (phosphatidylinositol 4-kinase type 2 beta) | 1 | -0.207 |
| PI4K2B (phosphatidylinositol 4-kinase type 2 beta) | 2 | -0.558 |
| PI4K2B (phosphatidylinositol 4-kinase type 2 beta) | 3 | 0.268 |
| PI4K2B (phosphatidylinositol 4-kinase type 2 beta) | 4 | 0.281 |
| G3BP1 (G3BP stress granule assembly factor 1) | 1 | -0.17 |
| G3BP1 (G3BP stress granule assembly factor 1) | 2 | -0.0124 |
| G3BP1 (G3BP stress granule assembly factor 1) | 3 | -0.0721 |
| SLC4A9 | 1 | -0.517 |
| SLC4A9 | 2 | -0.297 |
| SLC4A9 | 3 | -0.561 |
| LRRK2 (leucine rich repeat kinase 2) | 1 | -0.0186 |
| LRRK2 (leucine rich repeat kinase 2) | 2 | -0.148 |
| LRRK2 (leucine rich repeat kinase 2) | 3 | 0.28 |
| LRRK2 (leucine rich repeat kinase 2) | 4 | -0.249 |
| TNFSF11 (TNF superfamily member 11) | 1 | 0.5 |
| TNFSF11 (TNF superfamily member 11) | 2 | -0.488 |
| TNFSF11 (TNF superfamily member 11) | 3 | 0.0653 |
| TNFSF11 (TNF superfamily member 11) | 4 | -0.415 |
| DLL4 (delta like canonical Notch ligand 4) | 1 | 0.353 |
| DLL4 (delta like canonical Notch ligand 4) | 2 | -0.206 |
| DLL4 (delta like canonical Notch ligand 4) | 3 | -0.384 |
| DLL4 (delta like canonical Notch ligand 4) | 4 | -0.025 |
| DNAH11 (dynein axonemal heavy chain 11) | 1 | -0.117 |
| DNAH11 (dynein axonemal heavy chain 11) | 2 | -0.0496 |
| DNAH11 (dynein axonemal heavy chain 11) | 3 | -0.0863 |
| FHL5 (four and a half LIM domains 5) | 1 | -0.0617 |
| FHL5 (four and a half LIM domains 5) | 2 | 0.0681 |
| FHL5 (four and a half LIM domains 5) | 3 | 0.0794 |
| FHL5 (four and a half LIM domains 5) | 4 | -0.486 |
| XPNPEP3 (X-prolyl aminopeptidase 3) | 1 | 0.661 |
| XPNPEP3 (X-prolyl aminopeptidase 3) | 2 | -0.538 |
| XPNPEP3 (X-prolyl aminopeptidase 3) | 3 | 0.743 |
| XPNPEP3 (X-prolyl aminopeptidase 3) | 4 | -0.319 |
| PTPRF (protein tyrosine phosphatase receptor type F) | 1 | -0.16 |
| PTPRF (protein tyrosine phosphatase receptor type F) | 2 | -0.551 |
| PTPRF (protein tyrosine phosphatase receptor type F) | 3 | -0.0813 |
| PTPRF (protein tyrosine phosphatase receptor type F) | 4 | -0.619 |
| CLDN16 (claudin 16) | 1 | -0.793 |
| CLDN16 (claudin 16) | 2 | 0.836 |
| CLDN16 (claudin 16) | 3 | -0.238 |
| CLDN16 (claudin 16) | 4 | -0.264 |
| THRA (thyroid hormone receptor alpha) | 1 | -0.0771 |
| THRA (thyroid hormone receptor alpha) | 2 | 0.0366 |
| THRA (thyroid hormone receptor alpha) | 3 | 0.0808 |
| THRA (thyroid hormone receptor alpha) | 4 | 0.0388 |
| PSAP (prosaposin) | 1 | -0.325 |
| PSAP (prosaposin) | 2 | 0.405 |
| PSAP (prosaposin) | 3 | 0.579 |
| PSAP (prosaposin) | 4 | -0.397 |
| GADL1 (GAD like acidic amino acid decarboxylase 1) | 1 | -0.0794 |
| GADL1 (GAD like acidic amino acid decarboxylase 1) | 2 | -0.478 |
| GADL1 (GAD like acidic amino acid decarboxylase 1) | 3 | 0.152 |
| GADL1 (GAD like acidic amino acid decarboxylase 1) | 4 | -0.176 |
| MAPK4 (mitogen-activated protein kinase 4) | 1 | -0.342 |
| MAPK4 (mitogen-activated protein kinase 4) | 2 | -0.398 |
| MAPK4 (mitogen-activated protein kinase 4) | 3 | -0.183 |
| MAPK4 (mitogen-activated protein kinase 4) | 4 | -0.339 |
